Data from PubChem BioAssay AID328 (DTP/NCI, 2004).
The list does not hold the whole screen: it gathers tests that were run many times, whatever their T/C, doses with no T/C, and many T/C values between a quarter and a half above the control. Other doses and runs of a compound stand elsewhere. T/C gives the treated animals as a percentage of the vehicle group. Some entries give survivors of the animals treated and no T/C: the source holds a T/C of zero for them, seemingly a mark for toxic or unscored doses. Some survivor counts are full or nearly so, which does not show that the dose was tolerated: survival well below the control is almost never listed, so the zero probably covers shortened survival too. Counts of survivors are from the toxicity check (mostly the fifth day) where no day follows; animals may have died later. Schedule codes are those of the source, read here as Q, the interval in days (D) or hours (H), X, the number of doses. Some doses were run more than once; the values are given in rising order. For survival time, this PubChem deposit counts one and a half times the control or more as active, and values a quarter to a half above the control carry no call in these data; other NCI protocols may use other cut-offs.

Tested on: BDF1 mice, P388 leukemia ip, median survival T/C
Assay: NCI In Vivo Anticancer Drug Screen. Data for tumor model P388 Leukemia (intraperitoneal) in B6D2F1 (BDF1) mice
Conditions: T/C endpoint: median survival time, higher T/C = longer survival
Experimental: The antitumor activity of compounds was measured in mice bearing transplantable tumors. Survival or tumor size were measured and the results are expressed as the measurement made in the treated group (T) divided by the measurement made in the vehicle treated control group (C). The tumor model used in this assay is P388 Leukemia (intraperitoneal) in B6D2F1 (BDF1) mice

[1] = dose: 0.5 mg/kg/injection, schedule: Q01DX009 (ip), vehicle: saline
[2] = dose: 4.0 mg/kg/injection, schedule: Q01DX009 (ip), vehicle: saline
[3] = dose: 8.0 mg/kg/injection, schedule: Q01DX009 (ip), vehicle: saline
[4] = dose: 50.0 mg/kg/injection, schedule: Q04DX003 (ip), vehicle: saline
[5] = dose: 100.0 mg/kg/injection, schedule: Q04DX003 (ip), vehicle: saline
[6] = dose: 100.0 mg/kg/injection, schedule: Q01DX009 (ip), vehicle: saline with Tween-80
[7] = dose: 200.0 mg/kg/injection, schedule: Q04DX003 (ip), vehicle: saline with Tween-80
[8] = dose: 400.0 mg/kg/injection, schedule: Q04DX003 (ip), vehicle: saline with Tween-80
[9] = dose: 25.0 mg/kg/injection, schedule: Q01DX009 (ip), vehicle: saline with Tween-80

Q: Which results are given for `CCOc1ccc(Nc2ncnc3nc[nH]c23)cc1CN(CCCl)CCCl`?
A: T/C (dose: 0.44 mg/kg/injection, schedule: Q04DX003 (ip), vehicle: saline): 145 % of control; T/C (dose: 0.45 mg/kg/injection, schedule: Q04DX003 (ip), vehicle: saline): 129 % of control; T/C [1]: 136 % of control; T/C (dose: 0.66 mg/kg/injection, schedule: Q04DX003 (ip), vehicle: saline): 133 % of control; T/C (dose: 1.33 mg/kg/injection, schedule: Q04DX003 (ip), vehicle: saline): 144 % of control; T/C (dose: 2.0 mg/kg/injection, schedule: Q04DX003 (ip), vehicle: saline): 149 % of control; T/C [2]: 145 % of control; survivor count (dose: 5.0 mg/kg/injection, schedule: Q01DX009 (ip), vehicle: saline): 4 of 6; survivor count (dose: 7.5 mg/kg/injection, schedule: Q01DX009 (ip), vehicle: saline): 2 of 6; survivor count [3]: 1 of 6; survivor count (dose: 25.0 mg/kg/injection, schedule: Q04DX003 (ip), vehicle: saline): 4 of 6; survivor count [4]: 3 of 6; survivor count [5]: 0 of 6

Q: `CCCCCCOC(=O)/C=C(/C)OCCCCCC` was tested. Which T/C (dose: 200.0 mg/kg/injection, schedule: Q01DX009 (ip), vehicle: saline with Tween-80) did it give?
A: 130 % of control

Q: What does the source list for `CCC1NC(C)(C)CC1=C(C)C` (stereo unspecified)?
A: survivor count (dose: 6.25 mg/kg/injection, schedule: Q01DX009 (ip), vehicle: saline): 6 of 6; survivor count (dose: 12.5 mg/kg/injection, schedule: Q01DX009 (ip), vehicle: saline): 6 of 6; survivor count (dose: 25.0 mg/kg/injection, schedule: Q01DX009 (ip), vehicle: saline): 6 of 6

Q: For `c1ccc(C23c4ccccc4C(=NC4CCCCC4)C2N3C2CCCCC2)cc1` (stereo unspecified), which survivor count (dose: 400.0 mg/kg/injection, schedule: Q04DX003 (ip), vehicle: Klucel (hydroxypropylcellulose) (HPC)) is on record?
A: 6 of 6

Q: `Cc1c(-c2ccccc2)cc(O)cc1-c1ccccc1` was tested. Which T/C [5] did it give?
A: 129 % of control

Q: Which results are given for `C=C1N(c2nc(Cl)nc(Cl)n2)c2ccccc2C1(C)C`?
A: survivor count (dose: 50.0 mg/kg/injection, schedule: Q01DX009 (ip), vehicle: saline with Tween-80): 3 of 6; survivor count [6]: 2 of 6 and 3 of 6

Q: Which survivor count (dose: 200.0 mg/kg/injection, schedule: Q01DX009 (ip), vehicle: Klucel (hydroxypropylcellulose) (HPC)) does the source give for `CCS(=O)(=O)C(Br)CBr` (stereo unspecified) here?
A: 4 of 6

Q: What about the survivor count (dose: 400.0 mg/kg/injection, schedule: Q01DX009 (ip), vehicle: Klucel (hydroxypropylcellulose) (HPC)) of the same compound?
A: 1 of 6

Q: With `CCOC(=O)/C(=C\c1ccccc1)O/C(=C/c1ccccc1)C(=O)OCC` as the compound, how does the survivor count (dose: 200.0 mg/kg/injection, schedule: Q04DX002 (ip), vehicle: saline with Tween-80) read?
A: 6 of 6

Q: With `CO[C@H]1OC(=O)C=C2C1=C[C@H]1OC(=O)[C@@]3(C)CCC[C@@]2(C)[C@@H]13` as the compound, how does the survivor count (dose: 50.0 mg/kg/injection, schedule: Q01DX009 (ip), vehicle: Klucel (hydroxypropylcellulose) (HPC)) read?
A: 3 of 3

Q: What does the source list for `CCO/C=C1\SC(=S)N(c2cccc(OC)c2)C1=O`?
A: T/C (dose: 178.0 mg/kg/injection, schedule: Q01DX009 (ip), vehicle: saline with Tween-80): 140 % of control; T/C [7]: 138 % of control; T/C (dose: 266.0 mg/kg/injection, schedule: Q01DX009 (ip), vehicle: saline with Tween-80): 129 % of control; T/C (dose: 400.0 mg/kg/injection, schedule: Q01DX009 (ip), vehicle: saline with Tween-80): 139 % of control; T/C [8]: 144 % of control; T/C (dose: 600.0 mg/kg/injection, schedule: Q01DX009 (ip), vehicle: saline with Tween-80): 131 % of control

Q: Which survivor count (dose: 200.0 mg/kg/injection, schedule: Q01DX009 (ip), vehicle: saline) does the source give for `NC(N)=Nc1ccc(S(=O)(=O)O)cc1` here?
A: 3 of 6

Q: And the survivor count (dose: 400.0 mg/kg/injection, schedule: Q01DX009 (ip), vehicle: saline)?
A: 0 of 6

Q: `COc1ccc2c(c1OC(C)=O)-c1cc(OC(C)=O)cc3c1C(C2)N(C(=O)CBr)CC3` (stereo unspecified) was tested. Which T/C [9] did it give?
A: 126 % of control

Q: And the survivor count [6]?
A: 3 of 6

Q: `COc1ccc(C2CCc3cc(OC)c(OC)cc3C2=O)cc1OC` (stereo unspecified) was tested. Which survivor count (dose: 40.0 mg/kg/injection, schedule: Q01DX009 (ip), vehicle: saline with Tween-80) did it give?
A: 6 of 6

Q: And the survivor count (dose: 240.0 mg/kg/injection, schedule: Q01DX009 (ip), vehicle: saline with Tween-80)?
A: 6 of 6

Q: `COc1ccc2nc3cc(Cl)ccc3c(NC(C)CCCN(CCCl)CCCl)c2c1` (stereo unspecified) was tested. Which T/C (dose: 0.2 mg/kg/injection, schedule: Q04DX003 (ip), vehicle: saline) did it give?
A: 136 % of control

Q: And the T/C (dose: 0.26 mg/kg/injection, schedule: Q04DX003 (ip), vehicle: saline)?
A: 130 % of control

Q: What about the T/C (dose: 0.4 mg/kg/injection, schedule: Q01DX009 (ip), vehicle: saline) of the same compound?
A: 136 % of control

Q: And the T/C (dose: 0.4 mg/kg/injection, schedule: Q04DX003 (ip), vehicle: saline)?
A: 133 and 145 % of control

Q: And the T/C [1]?
A: 145 % of control

Q: And the T/C (dose: 0.62 mg/kg/injection, schedule: Q04DX003 (ip), vehicle: saline)?
A: 133, 136, 140 % of control

Q: And the T/C (dose: 0.93 mg/kg/injection, schedule: Q04DX003 (ip), vehicle: saline)?
A: 141 and 145 % of control

Q: And the T/C (dose: 1.25 mg/kg/injection, schedule: Q04DX003 (ip), vehicle: saline)?
A: 136 % of control

Q: What about the survivor count (dose: 1.8 mg/kg/injection, schedule: Q01DX009 (ip), vehicle: saline) of the same compound?
A: 4 of 6

Q: And the survivor count (dose: 2.0 mg/kg/injection, schedule: Q01DX009 (ip), vehicle: saline)?
A: 6 of 6

Q: What about the survivor count (dose: 2.5 mg/kg/injection, schedule: Q04DX003 (ip), vehicle: saline) of the same compound?
A: 6 of 6

Q: What about the survivor count (dose: 2.8 mg/kg/injection, schedule: Q01DX009 (ip), vehicle: saline) of the same compound?
A: 2 of 6

Q: What about the survivor count [2] of the same compound?
A: 0 of 6

Q: What about the survivor count (dose: 4.2 mg/kg/injection, schedule: Q01DX009 (ip), vehicle: saline) of the same compound?
A: 0 of 6

Q: What about the survivor count [3] of the same compound?
A: 0 of 6

Q: What about the survivor count (dose: 16.0 mg/kg/injection, schedule: Q01DX009 (ip), vehicle: saline) of the same compound?
A: 0 of 6 and 2 of 6

Q: And the T/C (dose: 250.0 micrograms/kg/injection, schedule: Q01DX009 (ip), vehicle: saline)?
A: 127 % of control

Q: And the T/C (dose: 2000.0 micrograms/kg/injection, schedule: Q01DX009 (ip), vehicle: saline)?
A: 131 % of control

Q: Which survivor count [7] does the source give for `CCC(CN(C)C)C(=O)c1ccccc1` (stereo unspecified) here?
A: 2 of 6

Q: And the survivor count (dose: 400.0 mg/kg/injection, schedule: Q01DX001 (ip), vehicle: saline with Tween-80)?
A: 1 of 6

Q: And the survivor count [8]?
A: 0 of 6

Q: How did the survivor count (dose: 75.0 mg/kg/injection, schedule: Q01DX010 (ip), vehicle: saline) turn out when `CO[C@@H]1C=C[C@@]23c4cc5c(cc4CN(C[C@@H]2O)[C@H]3C1)OCO5` was run?
A: 0 of 6

Q: How did the survivor count [4] turn out when `c1ccc(C[n+]2ccc3ccccc3c2)cc1` was run?
A: 6 of 6

Q: For `O=C(COc1cc(Cl)c(Cl)cc1Cl)OCCOc1cc(Cl)c(Cl)cc1Cl`, which survivor count (dose: 6.25 mg/kg/injection, schedule: Q01DX009 (ip), vehicle: saline with Tween-80) is on record?
A: 6 of 6

Q: And the survivor count (dose: 12.5 mg/kg/injection, schedule: Q01DX009 (ip), vehicle: saline with Tween-80)?
A: 6 of 6

Q: And the survivor count (dose: 25.0 mg/kg/injection, schedule: Q04DX003 (ip), vehicle: saline with Tween-80)?
A: 6 of 6

Q: What about the survivor count (dose: 50.0 mg/kg/injection, schedule: Q04DX003 (ip), vehicle: saline with Tween-80) of the same compound?
A: 6 of 6

Q: Which survivor count (dose: 400.0 mg/kg/injection, schedule: Q04DX003 (ip), vehicle: saline) does the source give for `CN(C)[C@@H]1C(=O)C(C(=O)NCNC(CO)(CO)CO)=C(O)[C@@]2(O)C(=O)C3=C(O)c4c(O)cccc4[C@@](C)(O)[C@H]3C[C@@H]12` here?
A: 5 of 6

Q: For `S=C1N=C2c3ccccc3C2C(=S)S1` (stereo unspecified), which survivor count [9] is on record?
A: 6 of 6
